Results deposited as PubChem BioAssay AID1259308 (NCATS, 2017)

- Assay: 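Candidate targets for better recombinant protein yield in mammalian cells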 (primary screen)
- System: human HEK293 embryonic kidney cells stably expressing firefly luciferase (HEK-CMV-Luc2-Hygro)
- Knock-down reagent: single siRNA against human genes, 0.8 pmol siRNA per well
- Time to read-out: 72 h
- Detection: 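Luciferase light (ONE-Glo) measured on one replicate plate set and viability (CellTiter-Glo) on the other, scaled to a negative control siRNA, with robust z-scores and luciferase per cell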
- Reading the numbers: total luciferase, z-score: higher = more reporter protein produced
- Active means: 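An siRNA counts as active if its total luciferase robust z-score exceeds 3; genes with two or more such siRNAs out of three were retested with fresh siRNAs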
- Calls: active = raised luciferase; inactive = no rise
Here is one part, drawn at random, of about 59,000 deposited reagents. Over the whole deposit, about 1,510 (2.6%) were called active. 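Calls use total luciferase alone and ignore viability, so some active siRNAs may act by altering cell number.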 Reagents against one gene are numbered here. Not all columns of the deposit are shown.

total luciferase, z-score, by gene and reagent
TIPE1 (GeneID 126282): #1 0.466 inactive; #2 2.04 inactive; #3 0.751 inactive
TRIM51G (GeneID 120824): #1 0.443 inactive; #2 0.0528 inactive; #3 -0.963 inactive
MRPL51 (GeneID 51258): #1 -0.208 inactive; #2 0.879 inactive; #3 -0.745 inactive
ISG15 (GeneID 9636): #1 1.72 inactive; #2 -0.734 inactive; #3 0.8 inactive
GLIPR2 (GeneID 152007): #1 -0.00828 inactive; #2 2.3 inactive; #3 -0.951 inactive
ZSCAN22 (GeneID 342945): #1 -2.03 inactive; #2 -3.28 inactive; #3 -0.568 inactive
ZNF277 (GeneID 11179): #1 0.841 inactive; #2 -1.38 inactive; #3 -1.31 inactive
LACC1 (GeneID 144811): #1 -1.13 inactive; #2 -0.823 inactive; #3 -1.62 inactive
INSM2 (GeneID 84684): #1 0.175 inactive; #2 0.56 inactive; #3 -0.00198 inactive
MT2A (GeneID 4502): #1 2.11 inactive; #2 -0.0623 inactive; #3 1.76 inactive
FMR1 (GeneID 2332): #1 -1.27 inactive; #2 1.51 inactive; #3 0.12 inactive
ACSM2A (GeneID 123876): #1 -0.593 inactive; #2 0.314 inactive; #3 0.483 inactive
ABI1 (GeneID 10006): #1 2.11 inactive; #2 0.664 inactive; #3 -1.17 inactive
PHLDB3 (GeneID 653583): #1 -0.65 inactive; #2 -1.11 inactive; #3 0.603 inactive; #4 -0.875 inactive; #5 0.364 inactive; #6 1.05 inactive
CD300LG (GeneID 146894): #1 2.22 inactive; #2 -0.098 inactive; #3 0.107 inactive
MCMDC2 (GeneID 157777): #1 -0.512 inactive; #2 -1.71 inactive; #3 -1.85 inactive
FGD4 (GeneID 121512): #1 2.48 inactive; #2 0.312 inactive; #3 0.245 inactive
SNAI2 (GeneID 6591): #1 1.75 inactive; #2 -0.427 inactive; #3 0.168 inactive
SCAMP3 (GeneID 10067): #1 -1.19 inactive; #2 1.08 inactive; #3 0.358 inactive
TFPI (GeneID 7035): #1 -0.371 inactive; #2 -0.0554 inactive; #3 -0.0572 inactive
ZNF680 (GeneID 340252): #1 -0.719 inactive; #2 1.5 inactive; #3 0.275 inactive
LINC01376 (GeneID 400945): #1 -0.0664 inactive; #2 0.964 inactive; #3 -1.4 inactive
ZDHHC24 (GeneID 254359): #1 -1.77 inactive; #2 0.354 inactive; #3 -1.08 inactive
SLC25A46 (GeneID 91137): #1 0.738 inactive; #2 -0.124 inactive; #3 -0.573 inactive
